Data published in patent US20220226340A1, “CASEIN KINASE 1 INHIBITORS FOR USE IN THE TREATMENT OF DISEASES RELATED TO DUX4 EXPRESSION SUCH AS MUSCULAR DYSTROPHY AND CANCER” (Facio Intellectual Property B.V., priority 2019, published 2022).

System: primary FSHD cells
Assay: fusion index (myotube fusion) readout of the high-content assay in primary FSHD cells
Assay type: cell-based, human
Details: 72 h treatment, compound present during whole differentiation
From the text: A quantitative assay readout was developed based on script-based image analysis. […] To analyse the images, an automated script was developed, enabling the detection of nuclei, myotube borders and DUX4 signals, with the script also detecting artefacts to reduce false positive signals. The script enabled multiple validated readouts including the number of DUX4 positive nuclei and nuclei clusters, the fusion index, myotube area, myotube width and myotube skeleton length (see FIG. 2). Additionally, the total nuclei count was included as a measure of cell loss or compound toxicity.
Compounds are administered either 15 h before fixation, resembling the original screening protocol, or 72 h before fixation (grey arrow). In the latter case, compounds are present during the whole differentiation process.

## COc1ccc(CC(C)NCC(O)c2ccc(O)c(NC=O)c2)cc1 (stereo not shown) [formoterol]
  effect on fusion index / myotube fusion: no myotube formation can be observed
